Paper PMC7862700
This is a selection; strong and weak results do not stand in their true shares. At the low end of the ranking the order means little.

Protein sequences, listed by entry. Tags and fused reporters are not part of them. Lines headed by an entry give the natural chain unless they say otherwise; changes in a name come on top.
UniProt O43186: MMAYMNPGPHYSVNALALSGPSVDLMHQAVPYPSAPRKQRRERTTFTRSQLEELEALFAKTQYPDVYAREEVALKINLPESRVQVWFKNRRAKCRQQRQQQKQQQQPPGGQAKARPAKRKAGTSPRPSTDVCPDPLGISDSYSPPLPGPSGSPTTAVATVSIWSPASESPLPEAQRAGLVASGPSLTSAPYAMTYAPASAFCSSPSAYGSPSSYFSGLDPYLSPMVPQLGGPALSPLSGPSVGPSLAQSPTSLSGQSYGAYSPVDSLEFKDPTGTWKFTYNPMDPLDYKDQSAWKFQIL

Legend:
CRX = CRX (UniProt O43186); experiment: DAPPL (digital affinity profiling via proximity ligation, sequencing); details: 10 mM Tris-HCl pH 7.5, 50 mM NaCl, 1 mM DTT, 4% glycerol, room temperature, 30 min; GST-TFs on glutathione beads, 16-mer random dsDNA library, 0.1% …; high values mean tight binding; double strand, one strand shown; scale: fold enrichment (6-mer frequency, TF over GST control)
ELF5 = target: T1, ELF5 (UniProt Q9UKW6-2); experiment: as above; details: 10 mM Tris-HCl pH 7.5, 50 mM NaCl, 1 mM DTT, 4% glycerol, room temperature, 30 min; GST-TFs on glutathione beads, 16-mer random dsDNA library, 0.1% …; high values mean tight binding; double strand, one strand shown; scale: fold enrichment (6-mer frequency, TF over GST control)
T1 sequence: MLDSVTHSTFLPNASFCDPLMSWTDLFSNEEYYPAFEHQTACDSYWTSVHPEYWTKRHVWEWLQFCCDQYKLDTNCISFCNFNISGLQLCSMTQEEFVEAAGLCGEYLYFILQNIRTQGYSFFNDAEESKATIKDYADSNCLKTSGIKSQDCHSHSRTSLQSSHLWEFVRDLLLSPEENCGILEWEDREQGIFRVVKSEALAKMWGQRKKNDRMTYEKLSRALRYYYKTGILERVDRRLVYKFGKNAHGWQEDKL

Sequence | binding signal (CRX) | binding signal (ELF5)
GCCCAC | 0.858 | 0.992
GTAACC | 0.808 | 1.07
GCAATG | 0.779 | 0.978
GGATGC | 0.65 | 1.25
CTACAA | 1.04 | 1.16
CAACGC | 0.834 | 0.996
TGGGCA | 0.753 | 0.905
AAGTTA | 1.26 | 1.21
AGCTCG | 0.979 | 0.95
ATGTGC | 0.897 | 1.09
CATCAA | 0.922 | 0.945
GTGCAT | 0.829 | 1.02
CGTTTA | 1.19 | 1.07
TTCAAT | 1.38 | 1.26
GCCCGA | 0.884 | 0.939
TGGACT | 1.06 | 1.22
GGCAGC | 0.75 | 0.901
GCAGCC | 0.726 | 0.852
AAGTGT | 0.994 | 1.43
GCCGCA | 0.805 | 0.923
AGCCAC | 0.875 | 0.907

In another format: entries from further up
Sequence	binding signal (CRX)	binding signal (ELF5)
AAGTGT	0.994	1.43
GCCGCA	0.805	0.923

Following part:

Sequence | binding signal (CRX) | binding signal (ELF5)
GTTCGC | 0.906 | 1.01
GGTTAC | 0.716 | 0.944
CCCATA | 1.24 | 1.25
CAGCAT | 0.897 | 0.958
TCGATA | 1.24 | 0.976
CACGAC | 0.875 | 1.24
ATCCTT | 2.37 | 2.26
TGGCTG | 0.899 | 1.01
TTAATC | 6.11 | 1.18
CCACCA | 0.789 | 0.983
CTCATC | 1.32 | 1.44
CGTAAC | 0.901 | 1.12
AAACTT | 1.21 | 1.43
CGCACT | 0.946 | 1.23
GATGCA | 0.842 | 1.1
CCGGTT | 0.863 | 2.37
CAAGTT | 0.872 | 1.03
CGGCCT | 0.932 | 0.977
GCACAC | 0.692 | 0.928
AGCGCC | 0.881 | 0.982
